Screening data

From PubChem BioAssay record AID1159506 (NCATS, 2015).

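Luminescence from an EWS-FLI1 target-promoter (NR0B1) reporter, set against a CMV-promoter reporter, two days after silencing single genes in TC32 Ewing sarcoma cells. Each siRNA was applied at 20 nM. A z-score of the log NR0B1-over-CMV signal, less the median of siRNAs with the same seed; more negative means a stronger specific loss of the NR0B1 reporter.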

The strongest results of the screen are mostly left out here. Sequences are the guide (antisense) strand, without overhang.

strand,gene,seed-corrected z-score
UUCCAUUCUCGAUUCAUGG,RRP1B,0.5447
UCAAUGGUCACGUAGACGG,ABCC1,-0.7603
UUAGGAAUGAUGCUGCCCU,TEX33,-0.1378
UACUGGUGAAGCCUCAUUC,ZFAND3,-0.5686
UUUGUUGCAGGUUGGUGCC,CH17-351M24.1,0.1501
AUAACUCCGAAAUUCCUCC,RC3H2,1.169
AAUUCGAAAAUUUGGAGUC,GPD1L,-0.08177
UCCUGAGUAAAUGCUAUCG,PROB1,-0.9269
UACGCUUCAUGUCAAGGAC,GSTM5,0.6879
UCAGGAAGAAUUUGUCUCC,LMO1,-0.5607
AUAGAUGCAGCGAUAAGGC,LAIR1,-0.4724
ACUGGUACAGGGAUCGUUG,GABBR2,0.9143
UGGGUUUUGGAUGCCUUCU,FAM32A,0.2994
AUCGUUCAAAGAGCCGAGC,IPO8,-0.7143
UAUUAGUUGCAAGUAUGCC,MX2,-0.6545
UUGGUGUAAGUAUUUAAGC,CHST9,-0.3326
AAAGUCAAAAGCCCGGCUG,FANCF,-1.165
UUUCGAACAGGUGGUUUAG,DYNC1LI1,-0.0147
AAGCGUGAAAUAAUUGUGC,ETNK2,0.3364
AGAGCUAUGAAAGCUAUGC,PRDM8,-0.2672
AUAAGUUCCAUCUUGCUGC,ESRP1,-0.4416
UAGCUGUUACUAAUGCUCC,REG3G,0.164
UCAUUCAACCGCUUUACCU,RABEP2,0.7506
UCAUAGUCCAUGCUGGAGC,CNTNAP3B,-0.6247
UCUGGUACACGAGGAACUG,MAPK12,-0.5485
UGCUUUAACAGCUUCUUCC,VEZF1,-1.496
UUCUGAGCACUGGUCUAGC,LZTS3,0.1233
UAUUCGAUGGAGUUGAGUG,CDC42BPB,-0.03202
AACGAUACAGAGUUGUUCG,MYOF,-0.7033
UUAGUAUUUCUGACUCUUG,CNTNAP4,-1.552
AUCUUACCCAUGUCGUUGC,C12orf57,-0.3112
UCUUCUCUAACUCAGGAUC,METTL3,-0.1793
UCAAUAUUAAGGGACUGCU,WISP2,0.7469
UUUGUAGAAUGCAUCCUGC,CHCHD3,0.2887
UCGGCAUUAAGAAUAGAUC,TFB1M,0.4395
UAUGGUUUCUGAUUCAUCU,FAM53C,0.03522
ACAGGGAUUAGAGAUACAG,KRT33A,0.1943
UAUCUUAGGACAGUCUUUC,ZSCAN9,-0.3456
UAUGAAUGAAGCAUCUUGA,NEUROG1,0.07585
UGUAUAGGAAGUUUCGAGC,C22orf46,-0.08549
AAUCCUUUGAAGACUGGGC,SLC23A1,0.3038
UGUUGAUAAAAGACCAUUC,CYLD,0.7008
UCCUUGUACGAAACUCUGC,KPNA6,0.1739
UUUGGAGUCGAGGUUGUAG,JOSD1,-1.39
UGAAUUUAAAGGGCUGUUC,ETV1,-0.6436
UAGUUGGACAAUAACUACC,FGG,-0.1524
UUCUAUAUCCUUCACAGCA,FAM24B,0.002717
UGACCAUCGUGUUUCAUCC,C4orf51,-0.2355
UCAUGGAUGAUGCGGAACC,ANKK1,-1.002
UUCGUGCUGAGUGUCCACC,LBH,-0.4679
AAGUCUGUAAAUUCACCGG,ZW10,-0.4741
UGCUGAACCAAAUCGAGUG,ITGA2,-0.7148
UCUUGGAAAGGAUUCUUUG,MIR9-3HG,0.8681
UGGUCAACAAUUUUCCCUG,NXPH2,0.362
UCCGAAGUCUCAACGAUGC,ARL6IP5,0.3444
UAUUCAUUCUUGGACAUUU,AKR7L,0.117
UACUCCUUACUUUUGACAG,CAPZA3,0.5978
UUCUUCAUACGCCUGUUCU,HOXD12,0.2493

The first 3 entries again:

{"strand": "UUCCAUUCUCGAUUCAUGG", "gene": "RRP1B", "seed-corrected z-score": "0.5447"}
{"strand": "UCAAUGGUCACGUAGACGG", "gene": "ABCC1", "seed-corrected z-score": "-0.7603"}
{"strand": "UUAGGAAUGAUGCUGCCCU", "gene": "TEX33", "seed-corrected z-score": "-0.1378"}